PubChem BioAssay AID1053208, Peter MacCallum Cancer Centre – 2014

Assay: 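Find knock-downs that sensitise mouse osteosarcoma cells to doxorubicin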 (primary screen)
System: mouse osteosarcoma cells, early-passage culture from an engineered mouse model of fibroblastic bone tumour
Knock-down reagent: siRNA pool against mouse genes, 40 nM
Timing: about 120 h (48 h before drug, then 72 h with drug)
Treatment: doxorubicin 100 nM for 72 h, roughly 30-40% inhibitory dose
Measurement: 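Luminescent ATP signal taken as viability with or without 100 nM doxorubicin for 72 h; mean of two wells set against non-targeting siRNA and turned into robust z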
Scale: viability z-score with doxorubicin: higher = more viable cells under doxorubicin; viability z-score without drug: higher = more viable cells with knock-down alone
Active means: 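Called active if knock-down leaves viability unchanged without drug (z within -2 to 2) but lowers it with doxorubicin (z at or under -2)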
In all, the deposit lists about 17,000 reagents; shown is an unselected part. Of all reagents, 788 (4.7%) were called active. 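Calls rest on z-score classes alone; an extra cut-off of viability at most 70% of control was not applied to them.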 Not all columns of the deposit are shown.

gene knocked down	combined z-score class	viability z-score with doxorubicin	viability z-score without drug	Call
Gli2 (GeneID 14633)	no change with or without drug	-0.56	-0.17	inactive
Wdr37 (GeneID 207615)	no change with or without drug	-0.67	0.17	inactive
Cyp2j9 (GeneID 74519)	no change with or without drug	0	0.51	inactive
Ankrd17 (GeneID 81702)	no change with or without drug	-0.34	0.17	inactive
5830411J07Rik (GeneID 74742)	no change with or without drug	0.79	-0.84	inactive
Or9g8 (GeneID 258562)	no change with or without drug	-0.45	0.17	inactive
C1qtnf1 (GeneID 56745)	no change with or without drug	1.35	0.67	inactive
Sos1 (GeneID 20662)	no change with or without drug	0	1.52	inactive
Cyrib (GeneID 223601)	high cell count with and without drug	2.47	2.87	inactive
Fam78b (GeneID 226610)	no change with or without drug	0.67	-0.84	inactive
Agtr1b (GeneID 11608)	no change with or without drug	0	-1.18	inactive
Sox10 (GeneID 20665)	no change with or without drug	-0.67	0	inactive
Nit1 (GeneID 27045)	no change with or without drug	-0.22	0.51	inactive
Plagl1 (GeneID 22634)	no change with or without drug	-0.22	-0.51	inactive
Cep68 (GeneID 216543)	no change with or without drug	-0.45	-1.52	inactive
Suox (GeneID 211389)	no change with or without drug	-0.67	-1.01	inactive
Rdh14 (GeneID 105014)	no change with or without drug	0.67	0.84	inactive
Prmt3 (GeneID 71974)	no change with or without drug	0.56	1.01	inactive
Anxa7 (GeneID 11750)	no change with or without drug	-1.8	-0.51	inactive
Cct6a (GeneID 12466)	low cell count without drug only	-0.22	-2.19	inactive
Kcna2 (GeneID 16490)	no change with or without drug	-0.67	0.34	inactive
Enpp4 (GeneID 224794)	no change with or without drug	-0.79	0	inactive
Crcp (GeneID 12909)	no change with or without drug	0.9	1.52	inactive
C030032C09RIK	no change with or without drug	-0.45	-1.18	inactive
Pp2d1 (GeneID 110332)	high cell count without drug only	-1.91	2.02	inactive
Crct1 (GeneID 74175)	no change with or without drug	0.22	0.84	inactive
Susd4 (GeneID 96935)	no change with or without drug	0.11	0	inactive
Wdfy2 (GeneID 268752)	no change with or without drug	1.46	0.51	inactive
Glra3 (GeneID 110304)	no change with or without drug	-0.22	-1.18	inactive
Klc2 (GeneID 16594)	no change with or without drug	-1.35	1.35	inactive
Gipc2 (GeneID 54120)	no change with or without drug	0.34	1.18	inactive
Phlda2 (GeneID 22113)	no change with or without drug	-0.56	-1.18	inactive
Hdhd2 (GeneID 76987)	no change with or without drug	0	-0.51	inactive
Atg4a (GeneID 666468)	no change with or without drug	0.67	1.85	inactive
Cemip2 (GeneID 83921)	high cell count without drug only	1.91	2.53	inactive
Susd6 (GeneID 217684)	no change with or without drug	-1.12	-0.17	inactive
Kat6b (GeneID 54169)	no change with or without drug	0.79	-0.34	inactive
Sprr4 (GeneID 229562)	no change with or without drug	1.35	-0.17	inactive
Dnaja1 (GeneID 15502)	no change with or without drug	-0.45	0.84	inactive
Sh3bgrl3 (GeneID 73723)	no change with or without drug	-0.67	-1.52	inactive
Paqr4 (GeneID 76498)	no change with or without drug	-1.57	-1.52	inactive
Pbxip1 (GeneID 229534)	no change with or without drug	0.22	0.51	inactive
Frmd5 (GeneID 228564)	no change with or without drug	0.67	0.17	inactive
Upk2 (GeneID 22269)	no change with or without drug	-1.57	-1.18	inactive
Hmgcll1 (GeneID 208982)	no change with or without drug	-0.79	-0.51	inactive
Amigo3 (GeneID 320844)	no change with or without drug	0	0.34	inactive
Vezf1 (GeneID 22344)	no change with or without drug	1.12	0.51	inactive
Slc38a7 (GeneID 234595)	no change with or without drug	0	-0.84	inactive
Rxrb (GeneID 20182)	no change with or without drug	-0.45	-0.17	inactive
Ndufb11 (GeneID 104130)	low cell count without drug only	0.67	-2.02	inactive
